Laboratory results: PubChem BioAssay AID504793 (Drosophila RNAi Screening Center, 2011)

- Purpose: 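Genes required for cells to halt at G2/M after double-strand DNA breaks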 (primary screen)
- Cell system: Drosophila S2R+ cells
- Reagents: long dsRNA against Drosophila genes, about 0.25 µg dsRNA per well
- Timing: 4 days of dsRNA, then 4 hours of drug before read-out
- Conditions: doxorubicin 0.5 µM for 4 hours to cause double-strand breaks, in cells also given a low, harmless dose of dsRNA against nbs to sensitise the assay
- Measured: 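Mitotic index as the number of phospho-histone H3-positive cells in each well following doxorubicin, given as raw counts without normalisation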
- Reading the numbers: mitotic cells: higher = more cells in mitosis, weaker G2 arrest
- Active means: 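a call needs confirmation in secondary tests, with other dsRNAs and a check of mitotic timing without damage, not just a high primary count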
- Meaning of the calls: active = confirmed in follow-up tests; inactive = not confirmed
The screen tested about 23,000 reagents; this is a random part of those that have a named target and a result. Of all reagents, 62 (0.27%) were called active. 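Calls come from follow-up tests whose scores are not deposited, so confirmed genes may have low counts here; counts are not normalised per plate.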 Raw values vary from plate to plate and are shown uncorrected.

Knock-down of Or45b [DRSC07488] came out at: mitotic cells, replicate 1 = 7; inactive.
CG5357 (retired record) [DRSC04497] gave mitotic cells, replicate 1 = 4; inactive.
CG5357 (retired record) [DRSC25149] showed mitotic cells, replicate 1 = 8; inactive.
Against Taf4 [DRSC11297], the entry reads mitotic cells, replicate 1 = 6; inactive.
Knock-down of Taf4 [DRSC25921] resulted in: mitotic cells, replicate 1 = 9; inactive.
With knock-down of Teh2 [DRSC08458], the record shows mitotic cells, replicate 1 = 3; inactive.
With knock-down of Teh2 [DRSC29037], the record shows mitotic cells, replicate 1 = 2; inactive.
With knock-down of CG12920 [DRSC06234], the record shows mitotic cells, replicate 1 = 2; inactive.
Rab9Fb [DRSC19854] gave mitotic cells, replicate 1 = 10; inactive.
For Drsl1 [DRSC22490], the entry reads mitotic cells, replicate 1 = 10; inactive.
Knock-down of CG31908 [DRSC23243] gave: mitotic cells, replicate 1 = 10; inactive.
Against polo [DRSC11384], the values are mitotic cells, replicate 1 = 10; inactive.
Knock-down of polo [DRSC22359] came out at: mitotic cells, replicate 1 = 575; inactive.
With knock-down of ldbr [DRSC10933] the results were mitotic cells, replicate 1 = 3; inactive.
fun (retired record) [DRSC12300] gave mitotic cells, replicate 1 = 7; inactive.
After knock-down of CG9813 [DRSC16569] the results were mitotic cells, replicate 1 = 6; inactive.
CG9813 [DRSC26207] scored mitotic cells, replicate 1 = 5; inactive.
CG31875 [DRSC21975] gave mitotic cells, replicate 1 = 10; inactive.
For Ku80 [DRSC02699], the entry reads inactive.
Knock-down of Ku80 [DRSC26861] gave: mitotic cells, replicate 1 = 5; inactive.
Atg4a [DRSC00656] gave mitotic cells, replicate 1 = 4; inactive.
Silencing of Atg4a [DRSC28580] came out at: mitotic cells, replicate 1 = 4; inactive.
Depletion of CG4927 [DRSC06903] came out at: mitotic cells, replicate 1 = 2; inactive.
After knock-down of CG4927 [DRSC28614], the record shows mitotic cells, replicate 1 = 4; inactive.
